By UniProt entry, the sequences of proteins in these tests, tags left out.
UniProt P15056, whole entry: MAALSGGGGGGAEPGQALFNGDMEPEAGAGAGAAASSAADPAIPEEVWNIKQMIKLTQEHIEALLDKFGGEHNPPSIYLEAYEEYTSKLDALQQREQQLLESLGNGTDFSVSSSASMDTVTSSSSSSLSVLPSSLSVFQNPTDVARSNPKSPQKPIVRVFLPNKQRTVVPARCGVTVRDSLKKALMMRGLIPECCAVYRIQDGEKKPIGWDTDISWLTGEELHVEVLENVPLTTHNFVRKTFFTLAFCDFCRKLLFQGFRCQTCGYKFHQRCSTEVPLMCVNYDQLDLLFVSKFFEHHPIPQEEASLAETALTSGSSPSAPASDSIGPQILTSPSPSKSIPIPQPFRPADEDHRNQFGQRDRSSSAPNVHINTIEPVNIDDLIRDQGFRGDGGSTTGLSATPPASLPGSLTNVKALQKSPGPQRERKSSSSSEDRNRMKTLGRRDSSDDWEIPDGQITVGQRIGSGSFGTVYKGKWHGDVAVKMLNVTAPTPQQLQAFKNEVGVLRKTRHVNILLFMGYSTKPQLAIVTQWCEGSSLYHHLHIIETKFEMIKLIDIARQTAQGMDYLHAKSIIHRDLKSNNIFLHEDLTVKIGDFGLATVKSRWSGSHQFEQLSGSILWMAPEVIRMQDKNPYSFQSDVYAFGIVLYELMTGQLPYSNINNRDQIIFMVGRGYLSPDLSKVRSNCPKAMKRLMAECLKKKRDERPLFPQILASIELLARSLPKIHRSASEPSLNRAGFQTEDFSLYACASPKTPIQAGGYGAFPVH
UniProt P15056, whole entry V600E: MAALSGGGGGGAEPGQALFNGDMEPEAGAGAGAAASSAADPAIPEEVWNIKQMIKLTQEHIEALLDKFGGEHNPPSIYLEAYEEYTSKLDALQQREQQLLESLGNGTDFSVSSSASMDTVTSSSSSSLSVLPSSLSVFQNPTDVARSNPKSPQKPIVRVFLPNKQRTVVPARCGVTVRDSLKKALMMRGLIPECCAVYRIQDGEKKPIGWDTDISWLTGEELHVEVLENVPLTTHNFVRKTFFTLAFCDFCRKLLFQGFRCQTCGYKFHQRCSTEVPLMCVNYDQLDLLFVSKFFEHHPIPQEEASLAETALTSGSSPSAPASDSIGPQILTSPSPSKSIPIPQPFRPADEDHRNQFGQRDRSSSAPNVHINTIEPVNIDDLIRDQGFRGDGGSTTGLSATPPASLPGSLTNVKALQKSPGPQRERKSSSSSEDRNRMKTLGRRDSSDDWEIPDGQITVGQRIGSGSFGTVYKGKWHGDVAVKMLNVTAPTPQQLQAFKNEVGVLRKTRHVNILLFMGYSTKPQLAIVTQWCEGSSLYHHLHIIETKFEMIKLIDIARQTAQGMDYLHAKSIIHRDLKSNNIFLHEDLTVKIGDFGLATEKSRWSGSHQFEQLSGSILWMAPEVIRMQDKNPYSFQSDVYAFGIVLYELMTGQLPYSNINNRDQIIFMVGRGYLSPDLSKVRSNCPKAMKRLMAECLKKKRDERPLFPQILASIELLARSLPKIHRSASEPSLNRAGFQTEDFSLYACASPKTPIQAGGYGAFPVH
UniProt P04049, whole entry Y340D/Y341D: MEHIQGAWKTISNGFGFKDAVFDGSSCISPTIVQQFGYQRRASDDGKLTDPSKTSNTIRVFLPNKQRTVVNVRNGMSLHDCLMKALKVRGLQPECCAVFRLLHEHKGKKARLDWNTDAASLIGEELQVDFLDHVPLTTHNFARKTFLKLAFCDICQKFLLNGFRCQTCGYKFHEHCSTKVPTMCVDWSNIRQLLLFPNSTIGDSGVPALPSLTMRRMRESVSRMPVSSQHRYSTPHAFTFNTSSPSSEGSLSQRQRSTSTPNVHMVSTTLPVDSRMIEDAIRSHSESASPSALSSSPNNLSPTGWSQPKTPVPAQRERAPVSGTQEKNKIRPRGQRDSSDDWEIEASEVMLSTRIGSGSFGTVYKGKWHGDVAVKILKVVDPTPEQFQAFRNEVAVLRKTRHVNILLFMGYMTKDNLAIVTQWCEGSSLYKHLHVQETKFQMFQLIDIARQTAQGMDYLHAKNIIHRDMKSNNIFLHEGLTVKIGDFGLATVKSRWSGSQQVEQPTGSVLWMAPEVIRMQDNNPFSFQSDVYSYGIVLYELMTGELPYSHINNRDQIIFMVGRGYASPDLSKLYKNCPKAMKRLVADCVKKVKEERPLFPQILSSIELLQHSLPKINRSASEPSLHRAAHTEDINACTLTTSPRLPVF

In US9440969B2, “Compounds and methods for kinase modulation, and indications therefor” (PLEXXIKON INC., priority 2009, dated 2016):

Legend:
B-Raf = B-Raf (Homo sapiens, UniProt P15056); assay: B-Raf kinase activity assay (AlphaScreen, biotin-MEK1 substrate); details: 100 μM ATP, 100 nM biotin-MEK1, 45 minutes at room temperature; read-out: Biochemical activity (IC50 μM) B-Raf
Experimental: (§1) Assays for biochemical and cell based activity are known in the art, for example, as described in PCT publication WO 2007/002433, the disclosure of which is hereby incorporated by reference as it relates to such assays. For example, the biochemical activity IC50 values are determined with respect to inhibition of B-Raf kinase activity, c-Raf-1 kinase activity, or B-Raf V600E kinase activity, where inhibition of phosphorylation of a peptide substrate is measured as a function of compound concentration. Compounds to be tested are diluted in dimethyl sulfoxide to a concentration of 0.1 mM. These are serially diluted 15 μL into 30 μL of dimethyl sulfoxide seven times in 96 well plates for a total of 8 dilution points, and for each dilution point 1 μL is added to a well of an assay plate. Plates are prepared such that each well in a 384 well plate contains 1 μL of compound in 10 μL, volume with 0.1 ng Raf enzyme (i.e. any of B-Raf, c-Raf-1 or B-Raf V600E, Upstate Biotechnology or prepared by methods known to one of skill in the art), 50 mM HEPES, pH 7.0, 50 mM NaCl, 2 mM MgCl2, 1 mM MnCl2, 0.01% Tween-20, 1 mM DTT, and 100 nM biotin-MEK1 as substrate. The reaction is started with addition of 10 μL of 200 μM ATP (i.e. final 100 μM ATP). […] The plates are incubated for 3 hours at room temperature and read on Envision reader (Perkin Elmer). […]

c-Raf-1 = c-Raf-1 (Homo sapiens, UniProt P04049); assay: c-Raf-1 kinase activity assay (AlphaScreen, biotin-MEK1 substrate); details: 100 μM ATP, 100 nM biotin-MEK1, 45 minutes at room temperature; read-out: Biochemical activity (IC50 μM) c-Raf-1
Experimental: as §1

[1] = tested on: COLO205 colon adenocarcinoma (B-Raf V600E mutation); assay: COLO205 cell growth inhibition (ATPlite luminescence); assay type: cell-based; details: Homo sapiens, COLO 205, 72 h, COLO205 cells, incubated 3 days with compound
Experimental: Compounds are assessed in a variety of cell based assays. For example human cell lines with B-Raf V600E mutation (A375 melanoma, SKMEL3 melanoma, and COLO205 colon adenocarcinoma), as well as tumorigenic cell lines with wild-type B-RAF (SW620 colon adenocarcinoma) or with Ras mutations (SKMEL2 melanoma and IPC298 melanoma). Similar assays may be used to assess additional tumorigenic cell lines with Ras mutations, including, but not limited to, M202, M207, M243, M244, M296, S117, HCT116, HCT15, DLD1, MiaPaCa, A549, NCI-H23, NCI-H460, HOP62, MDA-MB231, Hs-578T, HL60, MOLT-4, and CCRF-CEM.
On day 1, cells are counted, then centrifuged in a conical tube for 5 minutes at 1000 rpm. […]
On day 5, ATPlite 1 step Luminescence Assay System (Perkin Elmer #6016739) is brought to room temperature along with the cell cultures. ATPlite is added 25 μL to each well, shake for 2 minutes, and the cells are incubated at room temperature for 10 minutes, then luminescence is read on Safire reader. The measured luminescence correlates directly with cell number, such that the reading as a function of compound concentration is used to determine the IC50 value.
It is understood that the results of these assays may vary as assay conditions are varied. Inhibition levels determined under the conditions described herein represent a relative activity for the compounds tested under the specific conditions employed. […]

B-Raf V600E = B-Raf V600E (Homo sapiens, UniProt P15056, V600E); assay: B-Raf V600E kinase activity assay (AlphaScreen, biotin-MEK1 substrate); details: 100 μM ATP, 100 nM biotin-MEK1, 45 minutes at room temperature, read-out: Biochemical activity (IC50 μM) V600E
Experimental: as §1

IC50 (B-Raf): < 0.1 µM | IC50 (c-Raf-1): < 0.1 µM | IC50 [1]: < 1 µM | IC50 (B-Raf V600E): < 0.1 µM
Structure (SMILES): CCCS(=O)(=O)Nc1ccc(F)c(C(=O)c2c[nH]c3ncc(-c4cnc5[nH]ncc5c4)cc23)c1F [P-0008, Propane-1-sulfonic acid {2,4-difluoro-3-[5-(1H-pyrazolo[3,4-b]pyridin-5-yl)-1H-pyrrolo[2,3-b]pyridine-3-carbonyl]-phenyl}-amide]
